# Assay results from the supplement of paper PMC8728848.
# The other results are listed elsewhere or left out.
# Columns and labels:
# Assay in all cases: glycan array binding signal (z-score within array); higher = stronger binding
# Settings in all cases: glycan notation: IUPAC condensed, linker removed
# [1] = molecular target: Fuc(a1-2)Gal
# Summary of the method: (§1)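 Negative Z-scores can be read as non-binding. The Z-score is calculated within each array and then averaged across arrays of one protein sequence at different concentrations or buffers and across linkers. Arrays, 3228 in all, were curated from the Consortium for Functional Glycomics database and kept only where the protein sequence was available.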
# [2] = molecular target: Fuc(a1-2)Gal(b1-3)GalNAc
# Summary of the method: as §1
# [3] = molecular target: Fuc(a1-2)Gal(b1-3)GalNAc(a1-3)[Fuc(a1-2)]Gal(b1-4)Glc
# Summary of the method: as §1
# [4] = molecular target: Fuc(a1-2)Gal(b1-3)GalNAc(a1-3)[Fuc(a1-2)]Gal(b1-4)GlcNAc
# Summary of the method: as §1
# [5] = molecular target: Fuc(a1-2)Gal(b1-3)GalNAc(b1-3)Gal
# Summary of the method: as §1
# [6] = molecular target: Fuc(a1-2)Gal(b1-3)GalNAc(b1-3)Gal(a1-4)Gal(b1-4)Glc
# Summary of the method: as §1
# [7] = molecular target: Fuc(a1-2)Gal(b1-3)GalNAc(b1-4)[Neu5Ac(a2-3)]Gal(b1-4)Glc
# Summary of the method: as §1
# [8] = molecular target: Fuc(a1-2)Gal(b1-3)GlcNAc
# Summary of the method: as §1
# [9] = molecular target: Fuc(a1-2)Gal(b1-3)GlcNAc(b1-2)Man(a1-3)[Fuc(a1-2)Gal(b1-3)GlcNAc(b1-2)Man(a1-6)]Man(b1-4)GlcNAc(b1-4)GlcNAc
# Summary of the method: as §1
# [10] = molecular target: Fuc(a1-2)Gal(b1-3)GlcNAc(b1-2)Man(a1-3)[Fuc(a1-2)Gal(b1-3)GlcNAc(b1-2)Man(a1-6)]Man(b1-4)GlcNAc(b1-4)[Fuc(a1-6)]GlcNAc
# Summary of the method: as §1
# [11] = molecular target: Fuc(a1-2)Gal(b1-3)GlcNAc(b1-3)Gal(b1-4)Glc
# Summary of the method: as §1
# [12] = molecular target: Fuc(a1-2)Gal(b1-3)GlcNAc(b1-3)GalNAc
# Summary of the method: as §1
# [13] = molecular target: Fuc(a1-2)Gal(b1-3)GlcNAc(b1-3)[Fuc(a1-2)Gal(b1-3)GlcNAc(b1-6)]GalNAc
# Summary of the method: as §1
# [14] = molecular target: Fuc(a1-2)Gal(b1-3)GlcNAc(b1-3)[Gal(b1-4)GlcNAc(b1-6)]Gal(b1-4)Glc
# Summary of the method: as §1
# [15] = molecular target: Fuc(a1-2)Gal(b1-3)GlcNAc(b1-3)[Neu5Ac(a2-6)Gal(b1-4)GlcNAc(b1-6)]Gal(b1-4)Glc
# Summary of the method: as §1
# [16] = molecular target: Fuc(a1-2)Gal(b1-3)GlcNAc6S
# Summary of the method: as §1
# [17] = molecular target: Fuc(a1-2)Gal(b1-3)[Fuc(a1-4)]GlcNAc
# Summary of the method: as §1
# [18] = molecular target: Fuc(a1-2)Gal(b1-3)[Fuc(a1-4)]GlcNAc(b1-2)Man(a1-3)[Fuc(a1-2)Gal(b1-3)[Fuc(a1-4)]GlcNAc(b1-2)Man(a1-3)]Man(b1-4)GlcNAc(b1-4)GlcNAc
# Summary of the method: as §1
# [19] = molecular target: Fuc(a1-2)Gal(b1-3)[Fuc(a1-4)]GlcNAc(b1-2)Man(a1-3)[Fuc(a1-2)Gal(b1-3)[Fuc(a1-4)]GlcNAc(b1-2)Man(a1-6)]Man(b1-4)GlcNAc(b1-4)[Fuc(a1-6)]GlcNAc(b1-4)[Fuc(a1-6)]GlcNAc
# Summary of the method: as §1
# [20] = molecular target: Fuc(a1-2)Gal(b1-3)[Fuc(a1-4)]GlcNAc(b1-3)[Fuc(a1-3)[Gal(b1-4)]GlcNAc(b1-6)]Gal(b1-4)Glc
# Summary of the method: as §1
# [21] = molecular target: Fuc(a1-2)Gal(b1-3)[Fuc(a1-4)]GlcNAc(b1-3)[Gal(b1-4)GlcNAc(b1-6)]Gal(b1-4)Glc
# Summary of the method: as §1
# [22] = molecular target: Fuc(a1-2)Gal(b1-4)Fuc(a1-3)]GlcNAc(b1-2)Man(a1-3)[Fuc(a1-2)Gal(b1-4)[Fuc(a1-3)]GlcNAc(b1-2)Man(a1-6)]Man(b1-4)GlcNAc(b1-4)GlcNAc
# Summary of the method: as §1
# [23] = molecular target: Fuc(a1-2)Gal(b1-4)Glc
# Summary of the method: as §1
# [24] = molecular target: Fuc(a1-2)Gal(b1-4)Glc6S
# Summary of the method: as §1
# [25] = molecular target: Fuc(a1-2)Gal(b1-4)GlcNAc
# Summary of the method: as §1
# [26] = molecular target: Fuc(a1-2)Gal(b1-4)GlcNAc(b1-2)Man
# Summary of the method: as §1
# [27] = molecular target: Fuc(a1-2)Gal(b1-4)GlcNAc(b1-2)Man(a1-3)[Fuc(a1-2)Gal(b1-4)GlcNAc(b1-2)Man(a1-6)]Man(b1-4)GlcNAc(b1-4)GlcNAc
# Summary of the method: as §1
# [28] = molecular target: Fuc(a1-2)Gal(b1-4)GlcNAc(b1-2)Man(a1-3)[Fuc(a1-2)Gal(b1-4)GlcNAc(b1-2)Man(a1-6)]Man(b1-4)GlcNAc(b1-4)[Fuc(a1-6)]GlcNAc
# Summary of the method: as §1
# [29] = molecular target: Fuc(a1-2)Gal(b1-4)GlcNAc(b1-2)[Fuc(a1-2)Gal(b1-4)GlcNAc(b1-4)]Man(a1-3)[Fuc(a1-2)Gal(b1-4)GlcNAc(b1-2)Man(a1-6)]Man(b1-4)GlcNAc(b1-4)GlcNAc
# Summary of the method: as §1
# [30] = molecular target: Fuc(a1-2)Gal(b1-4)GlcNAc(b1-3)Gal(b1-4)GlcNAc
# Summary of the method: as §1
binder,measurement,setting,value
"RbmA (Vibrio cholerae), A0A2H4NFB8 (protein) MSNFKGSIMNKRHYYLASCLALLFSTASYAEVDCELQPVIEANLSLNQNQLASNGGYISSQLGIRNESCETVKFKYWLSIKGPEGIYFPAKAVVGVDTAQQESDALTDGRMLNVTRGFWVPEYMADGKYTVSLQVVAENGEVFKANQEFVKGGDLNSLPELNGLTIDIKNQFGINSVESTGGFVPFTIDLNNGREGEAKVEFWMTAVGPDGLIIPVHSREKWMIIAGNTFSKVRGINFDKSYPAGEYTINAQVVDIVSGERVEQLMTVVKK",glycan array binding signal (z-score),[1],0.097
same,glycan array binding signal (z-score),[2],1.03
same,glycan array binding signal (z-score),[3],-0.829
same,glycan array binding signal (z-score),[4],0.053
same,glycan array binding signal (z-score),[5],0.428
same,glycan array binding signal (z-score),[6],-0.98
same,glycan array binding signal (z-score),[7],-0.337
same,glycan array binding signal (z-score),[8],-0.789
same,glycan array binding signal (z-score),[9],-0.376
same,glycan array binding signal (z-score),[10],0.85
same,glycan array binding signal (z-score),[11],-0.335
same,glycan array binding signal (z-score),[12],-0.035
same,glycan array binding signal (z-score),[13],0.774
same,glycan array binding signal (z-score),[14],-0.263
same,glycan array binding signal (z-score),[15],0.745
same,glycan array binding signal (z-score),[16],-0.085
same,glycan array binding signal (z-score),[17],0.049
same,glycan array binding signal (z-score),[18],-0.034
same,glycan array binding signal (z-score),[19],0.21
same,glycan array binding signal (z-score),[20],-0.87
same,glycan array binding signal (z-score),[21],-1.01
same,glycan array binding signal (z-score),[22],0.794
same,glycan array binding signal (z-score),[23],0.32
same,glycan array binding signal (z-score),[24],0.358
same,glycan array binding signal (z-score),[25],-0.22
same,glycan array binding signal (z-score),[26],-0.987
same,glycan array binding signal (z-score),[27],3.71
same,glycan array binding signal (z-score),[28],-0.691
same,glycan array binding signal (z-score),[29],0.893
same,glycan array binding signal (z-score),[30],0.264

# Random excerpt: 2 entries already listed.
binder,measurement,setting,value
"RbmA (Vibrio cholerae), A0A2H4NFB8 (protein) MSNFKGSIMNKRHYYLASCLALLFSTASYAEVDCELQPVIEANLSLNQNQLASNGGYISSQLGIRNESCETVKFKYWLSIKGPEGIYFPAKAVVGVDTAQQESDALTDGRMLNVTRGFWVPEYMADGKYTVSLQVVAENGEVFKANQEFVKGGDLNSLPELNGLTIDIKNQFGINSVESTGGFVPFTIDLNNGREGEAKVEFWMTAVGPDGLIIPVHSREKWMIIAGNTFSKVRGINFDKSYPAGEYTINAQVVDIVSGERVEQLMTVVKK",glycan array binding signal (z-score),[2],1.03
same,glycan array binding signal (z-score),[27],3.71
